From doi:10.64898/2025.12.23.696137
These are yes or no findings as the source states them, for the method shown. Binding seen in cells or lysates may run through a third protein. Some results given as binding are weak or reduced against the parent protein; the word gives no strength. For some assays here: Where a sequence is shown, tags or fusion partners need not be part of it.

Protein sequences, listed by entry. Tags and fused reporters are not part of them. Lines headed by an entry give the natural chain unless they say otherwise; changes in a name come on top. Residues count along the entry.
UniProt Q9EPL4, whole entry, looked up, stated change not applied: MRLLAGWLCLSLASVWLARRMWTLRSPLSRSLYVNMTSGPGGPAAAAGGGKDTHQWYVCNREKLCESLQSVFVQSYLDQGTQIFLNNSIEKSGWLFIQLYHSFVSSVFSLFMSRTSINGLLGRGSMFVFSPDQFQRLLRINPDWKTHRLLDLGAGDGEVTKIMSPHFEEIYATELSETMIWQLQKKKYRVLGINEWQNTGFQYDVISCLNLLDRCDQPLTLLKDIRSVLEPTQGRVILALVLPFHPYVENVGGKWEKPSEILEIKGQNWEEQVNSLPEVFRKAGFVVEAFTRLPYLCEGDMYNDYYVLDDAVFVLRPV
UniProt Q9EPL4, 19-318: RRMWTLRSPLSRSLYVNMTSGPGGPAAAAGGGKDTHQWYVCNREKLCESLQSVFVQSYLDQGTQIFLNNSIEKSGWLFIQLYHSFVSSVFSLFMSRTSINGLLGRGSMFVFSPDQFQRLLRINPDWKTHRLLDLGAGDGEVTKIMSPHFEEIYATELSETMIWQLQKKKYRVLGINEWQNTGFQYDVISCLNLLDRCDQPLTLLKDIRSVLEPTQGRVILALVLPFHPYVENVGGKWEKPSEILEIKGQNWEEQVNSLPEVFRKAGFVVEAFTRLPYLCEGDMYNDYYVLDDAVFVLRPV

What was measured:
[1] = molecular target: METTL9-FLAG wild type (mouse) (mouse) (UniProt Q9EPL4); assay: co-IP
[2] = molecular target: METTL9-FLAG 2NA mutant (N35A/N86A, mouse) (mouse) (UniProt Q9EPL4); assay: co-IP

B1: calnexin (protein, UniProt P27824 21-592)
chain: HDGHDDDVIDIEDDLDDVIEEVEDSKPDTTAPPSSPKVTYKAPVPTGEVYFADSFDRGTLSGWILSKAKKDDTDDEIAKYDGKWEVEEMKESKLPGDKGLVLMSRAKHHAISAKLNKPFLFDTKPLIVQYEVNFQNGIECGGAYVKLLSKTPELNLDQFHDKTPYTIMFGPDKCGEDYKLHFIFRHKNPKTGIYEEKHAKRPDADLKTYFTDKKTHLYTLILNPDNSFEILVDQSVVNSGNLLNDMTPPVNPSREIEDPEDRKPEDWDERPKIPDPEAVKPDDWDEDAPAKIPDEEATKPEGWLDDEPEYVPDPDAEKPEDWDEDMDGEWEAPQIANPRCESAPGCGVWQRPVIDNPNYKGKWKPPMIDNPSYQGIWKPRKIPNPDFFEDLEPFRMTPFSAIGLELWSMTSDIFFDNFIICADRRIVDDWANDGWGLKKAADGAAEPGVVGQMIEAAEERPWLWVVYILTVALPVFLVILFCCSGKKQTSGMEYKKTDAPQPDVKEEEEEKEEEKDKGDEEEEGEEKLEEKQKSDAEEDGGTVSQEEEDRKPKAEEDEILNRSPRNRKPRRE
B1 was tested, and the binding [1] was “binds”.

B2: METTL9-FLAG 2NA mutant (N35A/N86A, mouse) (enzyme, UniProt Q9EPL4 19-318)
chain: RRMWTLRSPLSRSLYVAMTSGPGGPAAAAGGGKDTHQWYVCNREKLCESLQSVFVQSYLDQGTQIFLANSIEKSGWLFIQLYHSFVSSVFSLFMSRTSINGLLGRGSMFVFSPDQFQRLLRINPDWKTHRLLDLGAGDGEVTKIMSPHFEEIYATELSETMIWQLQKKKYRVLGINEWQNTGFQYDVISCLNLLDRCDQPLTLLKDIRSVLEPTQGRVILALVLPFHPYVENVGGKWEKPSEILEIKGQNWEEQVNSLPEVFRKAGFVVEAFTRLPYLCEGDMYNDYYVLDDAVFVLRPV
With B2 the binding [2] was “binds”.
